Assay results taken from publication PMC7357788, “Overlapping functions and protein-protein interactions of LRR-extensins in Arabidopsis” (PLoS Genetics, 2020).
These are yes or no findings as the source states them, for the method shown. Binding seen in cells or lysates may run through a third protein. Binding calls can cover weak binding; strength is not graded here.

Molecular target: LRX1^ΔE-FLAG (Arabidopsis thaliana)
Assay: co-IP; proteins transiently co-expressed in N. benthamiana leaves; extract in 200 mM Tris-HCl pH 7.5, 150 mM NaCl, 0.5% Triton X-100; anti-HA or anti-FLAG magnetic beads overnight at 4°C; immunoblot; in Fig 2A synthetic RALF1 peptide (50, 100, 200, 1000 nM) was added to the extracts

B1: FER^ECD-Citrine (domain or fragment, UniProt Q9SCZ4 28-447)
chain: ADYSPTEKILLNCGGGASNLTDTDNRIWISDVKSKFLSSSSEDSKTSPALTQDPSVPEVPYMTARVFRSPFTYTFPVASGRKFVRLYFYPNSYDGLNATNSLFSVSFGPYTLLKNFSASQTAEALTYAFIIKEFVVNVEGGTLNMTFTPESAPSNAYAFVNGIEVTSMPDMYSSTDGTLTMVGSSGSVTIDNSTALENVYRLNVGGNDISPSADTGLYRSWYDDQPYIFGAGLGIPETADPNMTIKYPTGTPTYVAPVDVYSTARSMGPTAQINLNYNLTWIFSIDSGFTYLVRLHFCEVSSNITKINQRVFTIYLNNQTAEPEADVIAWTSSNGVPFHKDYVVNPPEGNGQQDLWLALHPNPVNKPEYYDSLLNGVEIFKMNTSDGNLAGTNPIPGPQVTADPSKVLRPTTRKSKSNTA
- binding: binds
